Measured values published in patent publication US20040214255A1.
These are yes or no findings as the source states them, for the method shown. Some binding calls cover weakened binding; strength is not graded here. One block for each binder: values may come before it.

Sequences of proteins named here, by UniProt entry; tags and fusion partners are left off. Residues count along the entry.
UniProt P11166, residues 448-468: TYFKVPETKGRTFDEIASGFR
Insulin-Regulated Membrane-Spanning Aminopeptidase (IRAP), amino acids 1-273 (Q9UIQ6, residues 1-273): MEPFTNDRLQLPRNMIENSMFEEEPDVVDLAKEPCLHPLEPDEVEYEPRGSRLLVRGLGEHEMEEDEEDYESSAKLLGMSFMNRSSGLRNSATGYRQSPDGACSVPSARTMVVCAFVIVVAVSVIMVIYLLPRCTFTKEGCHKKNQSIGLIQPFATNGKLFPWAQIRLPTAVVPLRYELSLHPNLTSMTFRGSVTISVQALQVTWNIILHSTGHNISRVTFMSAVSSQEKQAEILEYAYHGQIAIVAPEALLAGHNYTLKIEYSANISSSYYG
Insulin-Regulated Membrane-Spanning Aminopeptidase (IRAP), amino acids 750-1026 (Q9UIQ6, residues 750-1025): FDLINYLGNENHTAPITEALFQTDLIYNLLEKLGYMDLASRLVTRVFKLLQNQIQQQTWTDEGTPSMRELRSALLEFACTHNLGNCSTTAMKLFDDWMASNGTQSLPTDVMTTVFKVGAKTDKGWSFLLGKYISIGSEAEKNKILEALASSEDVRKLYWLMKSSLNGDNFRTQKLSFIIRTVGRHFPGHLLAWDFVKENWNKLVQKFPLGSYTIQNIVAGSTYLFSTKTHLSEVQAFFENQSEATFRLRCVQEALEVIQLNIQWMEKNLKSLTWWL
UniProt Q15025, residues 160-500: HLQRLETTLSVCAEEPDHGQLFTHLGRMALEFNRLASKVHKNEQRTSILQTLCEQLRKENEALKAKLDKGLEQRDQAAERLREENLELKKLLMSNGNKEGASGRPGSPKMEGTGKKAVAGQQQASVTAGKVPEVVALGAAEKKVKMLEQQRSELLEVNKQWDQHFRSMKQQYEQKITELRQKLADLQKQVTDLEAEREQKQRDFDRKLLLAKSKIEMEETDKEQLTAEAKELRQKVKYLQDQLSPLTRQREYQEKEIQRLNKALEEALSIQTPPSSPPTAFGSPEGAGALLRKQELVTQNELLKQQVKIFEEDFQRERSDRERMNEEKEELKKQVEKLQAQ
UniProt Q99471, residues 14-154: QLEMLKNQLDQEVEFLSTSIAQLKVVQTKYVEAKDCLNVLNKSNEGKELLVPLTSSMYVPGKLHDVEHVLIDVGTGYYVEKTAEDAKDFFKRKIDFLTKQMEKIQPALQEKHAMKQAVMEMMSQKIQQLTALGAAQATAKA

What was measured:
Test in all cases: yeast two-hybrid
[1] = biological target: T1, Rab4, amino acids 1-214 (human) (UniProt P20338)
T1 sequence (looked up): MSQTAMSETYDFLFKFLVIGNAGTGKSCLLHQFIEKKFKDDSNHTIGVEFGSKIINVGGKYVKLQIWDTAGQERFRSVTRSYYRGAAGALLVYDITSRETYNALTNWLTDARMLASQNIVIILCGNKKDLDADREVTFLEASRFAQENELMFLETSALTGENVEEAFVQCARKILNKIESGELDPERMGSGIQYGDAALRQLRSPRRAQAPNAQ

[2] = biological target: Glucose Transporter 1, amino acids 448-468 (human) (UniProt P11166)
[3] = biological target: Insulin-Regulated Membrane-Spanning Aminopeptidase (IRAP), amino acids 750-1026 (human) (UniProt Q9UIQ6)
[4] = biological target: T2, PTP1b, amino acids 280-436 (human) (UniProt P18031)
T2 sequence (looked up): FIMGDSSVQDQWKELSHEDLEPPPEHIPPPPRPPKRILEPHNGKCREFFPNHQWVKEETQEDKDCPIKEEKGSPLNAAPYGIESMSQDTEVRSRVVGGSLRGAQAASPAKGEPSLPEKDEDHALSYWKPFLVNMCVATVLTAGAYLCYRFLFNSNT

[5] = biological target: Nef-Associated Factor 1 beta (Naf1b), amino acids 160-500 (human) (UniProt Q15025)
[6] = biological target: C-myc Binding Protein (MM-1), amino acids 27-175 (human) (UniProt Q99471)
[7] = biological target: Insulin-Regulated Membrane-Spanning Aminopeptidase (IRAP), amino acids 1-273 (human) (UniProt Q9UIQ6)

- binding [1]: binds
B1: Alpha-catenin-like Protein, amino acids 510-648 (protein, human, UniProt Q9UBT7 510-648, looked up)
chain: SQISDMSTLLREINDVFEGRRGEKYGYLSLPKPMKNNANLKSLKPDKPDSEEQAKIAKLGLKLGLLTSDADCEIEKWEDQENEIVQYGRNMSSMAYSLYLFTRGEGPLKTSQDLIHQLEVFAAEGLKLTSSVQAFSKQL

- binding [2]: binds
B2: DRAL(FHL2), amino acids 1-280 (protein, human, UniProt Q14192 1-279, looked up)
chain: MTERFDCHHCNESLFGKKYILREESPYCVVCFETLFANTCEECGKPIGCDCKDLSYKDRHWHEACFHCSQCRNSLVDKPFAAKEDQLLCTDCYSNEYSSKCQECKKTIMPGTRKMEYKGSSWHETCFICHRCQQPIGTKSFIPKDNQNFCVPCYEKQHAMQCVQCKKPITTGGVTYREQPWHKECFVCTACRKQLSGQRFTARDDFAYCLNCFCDLYAKKCAGCTNPISGLGGTKYISFEERQWHNDCFNCKKCSLSLVGRGFLTERDDILCPDCGKDI

- binding [3]: binds
B3: SG2NA, amino acids 623-713 (protein, not shown: small tags and cut ends)
chain: FFDNKTGKMIHSMVAHLDAVTSLAVDPNGIYLMSGSHDCSIRLWNLDSKTCVQEITAHRKKLDESIYDVAFHSSKAYIASAGADALAKVFV

- binding [4]: binds
B4: VAP-A, amino acids 3-242 (protein, human, UniProt Q9P0L0 3-242, looked up)
chain: SASGAMAKHEQILVLDPPTDLKFKGPFTDVVTTNLKLRNPSDRKVCFKVKTTAPRRYCVRPNSGIIDPGSTVTVSVMLQPFDYDPNEKSKHKFMVQTIFAPPNTSDMEAVWKEAKPDELMDSKLRCVFEMPNENDKLNDMEPSKAVPLNASKQDGPMPKPHSVSLNDTETRKLMEECKRLQGEMMKLSEENRHLRDEGLRLRKVAHSDKPGSTSTASFRDNVTSPLPSLLVVIAAIFIGF

- binding [5]: binds
B5: I-TRAF, amino acids 17-424 (protein, human, UniProt Q92844 17-424, looked up)
chain: RQACMDRDSAVKELQQKTENYEQRIREQQEQLSLQQTIIDKLKSQLLLVNSTQDNNYGCVPLLEDSETRKNNLTLDQPQDKVISGIAREKLPKVRRQEVSSPRKETSARSLGSPLLHERGNIEKTFWDLKEEFHKICMLAKAQKDHLSKLNIPDTATETQCSVPIQCTDKTDKQEALFKPQAKDDINRGAPSITSVTPRGLCRDEEDTSFESLSKFNVKFPPMDNDSTFLHSTPERPGILSPATSEAVCQEKFNMEFRDNPGNFVKTEETLFEIQGIDPIASAIQNLKTTDKTKPSNLVNTCIRTTLDRAACLPPGDHNALYVNSFPLLDPSDAPFPSLDSPGKAIRGPQQPIWKPFPNQDSDSVVLSGTDSELHIPRVCEFCQAVFPPSITSRGDFLRHLNSHFNGE

- binding [6]: binds
B6: C-Nap1, amino acids 279-426 (protein, human, UniProt Q9BV73 279-426, looked up)
chain: AELQDRVTELSALLTQSQKQNEDYEKMIKALRETVEILETNHTELMEHEASLSRNAQEEKLSLQQVIKDITQVMVEEGDNIAQGSGHENSLELDSSIFSQFDYQDADKALTLVRSVLTRRRQAVQDLRQQLAGCQEAVNLLQQQHDQW

- binding [7]: binds
B7: VAP-A, amino acids 3-243 (protein, human, UniProt Q9P0L0 3-243, looked up)
chain: SASGAMAKHEQILVLDPPTDLKFKGPFTDVVTTNLKLRNPSDRKVCFKVKTTAPRRYCVRPNSGIIDPGSTVTVSVMLQPFDYDPNEKSKHKFMVQTIFAPPNTSDMEAVWKEAKPDELMDSKLRCVFEMPNENDKLNDMEPSKAVPLNASKQDGPMPKPHSVSLNDTETRKLMEECKRLQGEMMKLSEENRHLRDEGLRLRKVAHSDKPGSTSTASFRDNVTSPLPSLLVVIAAIFIGFF
